The data set relates to normal plasma pool (NPP). The data set is described as follows: PiCT Method 4 (inverted PiCT) clotting time on ACL TOP 500. It is filed as biochemical, human. As for the experimental part: The present invention is in one aspect directed to the use of a clotting assay, in particular the PiCT® testing method on a detection system such as e.g. the ACL TOP® 500 analyzer and to a method to quantitatively and qualitatively detect anticoagulants in a sample, e.g. blood or plasma. […] PiCT® Method 4 or PiCT® inverted includes that first the start reagent is added to the sample, the mixture allowed to proceed according to the manufacturer's instructions followed by addition of the activator, i.e. a reversed order compared to standard PiCT® (see above). PiCT® Method 1 to 4 is described in more detail in the Examples.
The 4 methods (see above) are in more detail described in the Examples. […] With regards to the ACL TOP® 500 analyzer, PiCT® Method 1 to 4 has been established as follows: • PiCT® Method 1: 50 μl of plasma is incubated for 180 sec with 50 μl of reagent 1 and afterwards 50 μl of reagent 2 is added and the time to clot is recorded on the ACL TOP® 500 (i.e. pipetting scheme: P-50/A-50/I-180/50-S).
After calculation of the RR for the different kind of anticoagulants (see Example 1) samples of NPP spiked with incremental amounts of anticoagulants were used in the ACL TOP® 500, wherein 45 μl start reagent was incubated with 140 μl plasma for 60 sec. The time to clot was recorded after addition of 40 μl of activator (i.e. so-called inverted PiCT®).

Consider lepirudin [hirudin], for which, for the setting “Table 4, PiCT Method 4, clotting time out of RR at the low concentrations of Table 4”, the AC present yes/no entry is recorded as “yes”. Besides, the “Detection of low amounts with PiCT Method 4” value (low amounts as shown in Table 4) is given as “could be detected”.

(Values after patent US11846640B2, “Identification of anticoagulants in a sample” (DSM IP Assets B.V., priority 2013, dated 2023).)
